Data as given in PubChem BioAssay AID1259308 (NCATS, 2017)
Assay: 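Candidate targets for better recombinant protein yield in mammalian cells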 (primary screen). System: human HEK293 embryonic kidney cells stably expressing firefly luciferase (HEK-CMV-Luc2-Hygro). Reagent: single siRNA against human genes, 0.8 pmol siRNA per well. Duration: 72 h. Detection: 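Luciferase light (ONE-Glo) measured on one replicate plate set and viability (CellTiter-Glo) on the other, scaled to a negative control siRNA, with robust z-scores and luciferase per cell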. Scale: total luciferase, z-score and total luciferase, % of control: higher = more reporter protein produced. Active means: 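Active when the median/MAD z-score for overall luciferase is greater than 3; a gene was taken forward for validation with new siRNAs if at least two of its three siRNAs passed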. Meaning of the calls: active = raised luciferase; inactive = no rise.
Here is a random part of about 59,000 deposited reagents. About 1,510 of them (2.6%) count as active. 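Calls use total luciferase alone and ignore viability, so some active siRNAs may act by altering cell number.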 Entries without a mark were called inactive. Reagents against one gene are numbered here. Not all columns of the deposit are shown.

total luciferase, z-score	total luciferase, % of control	gene knocked down	reagent
0.359	89	GJB5	1
0.211	86.1	GJB5	2
0.207	86	GJB5	3
-0.712	67.7	EGLN3	1
-0.471	72.5	EGLN3	2
-0.126	79.4	EGLN3	3
0.25	86.9	CIDEA	1
0.549	92.8	CIDEA	2
1.67	115	CIDEA	3
-1.17	58.6	FZD10-AS1	1
2.79	137	FZD10-AS1	2
1.03	102	FZD10-AS1	3
-0.894	64.1	SIPA1L2	1
-0.261	76.7	SIPA1L2	2
-0.538	71.2	SIPA1L2	3
-0.729	67.4	NMT2	1
-0.278	76.4	NMT2	2
-0.436	73.2	NMT2	3
-0.419	73.6	AP3S1	1
-0.413	73.7	AP3S1	2
-0.564	70.7	AP3S1	3
-1.08	60.5	BMP2K	1
-0.188	78.2	BMP2K	2
-0.432	73.3	BMP2K	3
0.34	88.7	DCDC2B	1
-0.453	72.9	DCDC2B	2
-0.344	75	DCDC2B	3
1.26	107	HABP2	1
-0.123	79.4	HABP2	2
2.18	125	HABP2	3
-0.0297	81.3	OR10AD1	1
3.78 (active)	157	OR10AD1	2
-0.439	73.2	OR10AD1	3
0.118	84.2	PMPCB	1
-0.387	74.2	PMPCB	2
4.41 (active)	170	PMPCB	3
0.115	84.2	RTL3	1
-0.996	62.1	RTL3	2
-0.0873	80.1	RTL3	3
1.17	105	MRPL11	1
-0.62	69.6	MRPL11	2
0.617	94.2	MRPL11	3
1.14	105	GSK3B	1
0.251	86.9	GSK3B	2
-1.24	57.2	GSK3B	3
0.967	101	ERICH6B	1
2.12	124	ERICH6B	2
-0.0308	81.3	ERICH6B	3
-1	62	THOC5	1
-0.874	64.5	THOC5	2
-0.206	77.8	THOC5	3
0.218	86.2	VN1R2	1
-0.273	76.5	VN1R2	2
-0.977	62.5	VN1R2	3
-0.758	66.8	TBL3	1
-1.59	50.3	TBL3	2
-0.474	72.5	TBL3	3

Single entries from the list:
CIDEA #1, total luciferase, z-score → 0.25
RTL3 #2, total luciferase, % of control → 62.1
MRPL11 #2, total luciferase, % of control: 69.6
For “total luciferase, z-score”, THOC5 #1 reads -1
Value for VN1R2 #1 under “total luciferase, z-score”: 0.218
NMT2 #2, total luciferase, % of control: 76.4
